From PubChem BioAssay AID485349 (National Center for Advancing Translational Sciences (NCATS), 2010)
Among all 320,000 compounds or so, about 620 (0.19%) were called active. The shares of active, inactive and inconclusive entries below differ from those in the screen. Calls follow the shape of the dose curve; as a rule, active = well fitted activation curve with a large enough effect; inconclusive = small, poorly fitted or top-dose-only effect; inactive = no such curve, though single readings can be large or run the other way. Potencies of inconclusive entries are doubtful fits and often do not repeat.

Assay: qHTS Assay for Identifying a Potential Treatment of Ataxia-Telangiectasia; also: nearly all actives have a fitted effect of over 45% in size; as to activation: % of control where 0% means no effect
Conditions: […] A-T fibroblasts, KAP-1 phosphorylation AlphaLISA, neocarzinostatin DNA damage 30 min before lysis; series mostly up to 57.5 µM; activation: at the top concentration
Outline: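 ATM-like activity read as KAP-1 phosphorylation via AlphaLISA donor/acceptor antibody pairs after lysis and 6 hr at 25C. Cells were ATM-null patient fibroblasts ([…], hTERT), dosed 60 min, then exposed to the DSB inducer NCS for 30 min.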
Potency is read from the fitted curve at half-maximal effect.

| SMILES | Potency | activation |
| --- | --- | --- |
| Cc1cc(C)c2c(N)c(C(=O)NN)sc2n1 | active: 17.8 µM |  |
| C[C@H](NC(=O)c1ccc(Br)cc1)C(=O)NCc1ccc(S(N)(=O)=O)cc1 | inconclusive: 7.08 µM [activator, single point] |  |
| C#CCOC(=O)c1cc(Cl)c(=O)n(Cc2ccc(Cl)cc2Cl)c1 | inconclusive: 39.8 µM [activator, single point] |  |
| Cc1ccc(-c2csc3ncnc(NCCC(=O)O)c23)cc1 | inconclusive: 22.4 µM [activator, single point] |  |
| Cc1ccc(CNCc2ccco2)cc1 | inconclusive: 39.8 µM [activator, single point] |  |
| S=c1[nH]nc(C2CCCCC2)n1/N=C/c1ccc(Br)cc1 | active: 12.6 µM |  |
| CCCSC1=C(C#N)C(c2cccs2)CC(=O)N1 (stereo not drawn) | inconclusive: 0.708 µM [activator, full curve, poor fit] |  |
| Cn1ncc(Br)c1NC(=O)CSc1ccc(Cl)cc1 |  | inactive: 25.8% |
| Cc1ccc(C)c(S(=O)(=O)NCc2ccc3c(c2)OCO3)c1 | inconclusive: 14.1 µM [activator, partial curve] |  |
| O=C(NCCOc1ccccc1)C1CCC(=O)N(CCc2ccc(Cl)cc2)C1 (stereo not drawn) | inconclusive: 0.631 µM [activator, full curve, poor fit] |  |
| Cn1c2ccccc2c(=O)c2ccc(NCCc3cccs3)cc21 | inconclusive: 22.4 µM [activator, partial curve] |  |
| O=C(Cn1c(=O)sc2ccccc21)NCc1ccccn1 |  | inactive: 7.4% |
| O=C(O)CCCNC(=O)Cc1ccccc1 | inconclusive: 39.8 µM [activator, partial curve, poor fit] |  |
| COc1ccc(N2CCN(C(CNC(=O)C(=O)NCCCO)c3ccco3)CC2)cc1 (stereo not drawn) |  | inactive: -1.45% |
| COc1ccc(CNC(=O)CN2C(=O)CSc3ccc(S(=O)(=O)N4CCOCC4)cc32)c(OC)c1 | active: 7.08 µM |  |
| O=C(c1ccc(CSc2nc3ccncc3[nH]2)cc1)N1CCCCC1 | inconclusive: 3.16 µM [activator, partial curve, poor fit] |  |
| Cc1cc(C(=O)NC2CCCCC2)c2cc(F)ccc2n1 | inconclusive: 35.5 µM [activator, partial curve] |  |
| CCCCc1ccc(Nc2nc(CCC)cc(=O)[nH]2)cc1 | inconclusive: 35.5 µM [activator, single point] |  |
| Cc1cccc(NC(=O)/C(C#N)=C/c2ccc(F)cc2)n1 | active: 0.708 µM |  |
| C[C@H](NC(=O)c1nc[nH]c1C(=O)N1CCc2ccccc2C1)C(=O)OC(C)(C)C | inconclusive: 39.8 µM [activator, single point] |  |
| Cc1ccc(CNC(=O)c2cc(-c3ccccc3)n(Cc3cc(C)no3)n2)cc1 |  | inactive: 7.62% |
| C[C@H](NC(=O)OC(C)(C)C)C(=O)N/N=C/C1=Cc2ccccc2OC1 |  | inactive: 0% |
| Clc1cccc(CN2CCC(Cc3ccccc3)CC2)c1 | inconclusive: 39.8 µM [activator, single point] |  |
| O=C(COc1ccccc1Cl)N1N=C(c2cccs2)CC1c1ccco1 (stereo not drawn) |  | inactive: 10.1% |
| COc1ccccc1C(=O)Nc1ccnn1C1CCN(CCCc2ccccc2)CC1 |  | inactive: 5.37% |

Some of the entries above, set out differently:
SMILES	Potency	activation
O=C(NCCOc1ccccc1)C1CCC(=O)N(CCc2ccc(Cl)cc2)C1 (stereo not drawn)	inconclusive: 0.631 µM [activator, full curve, poor fit]	
Cn1c2ccccc2c(=O)c2ccc(NCCc3cccs3)cc21	inconclusive: 22.4 µM [activator, partial curve]	
O=C(Cn1c(=O)sc2ccccc21)NCc1ccccn1		inactive: 7.4%

Following part.

| SMILES | Potency | activation |
| --- | --- | --- |
| NNC(=O)CNc1cccc(Cl)c1 |  | inactive: -1.55% |
| COc1cccc(CNCc2ccc(OC)c3ccccc23)c1OC | inconclusive: 7.94 µM [activator, full curve, poor fit] |  |
| NC(=O)C1CCN(C2=C(Cl)C(=O)c3ccccc3C2=O)CC1 | inconclusive: 39.8 µM [activator, partial curve] |  |
| O=C(COC(=O)c1cc2ccccc2oc1=O)Nc1ccc(F)cc1F | inconclusive: 4.47 µM [activator, single point] |  |
| COC(=O)c1cc2c(ccn2-c2ccc(F)cc2)n1C(C)C |  | inactive: 11.3% |
| CCOC(=O)N1CCC(NC(=O)Cn2cc3c(n2)CCCCC3)CC1 | inconclusive: 0.562 µM [activator, full curve, poor fit] |  |
| Cc1nn(C)c(C)c1CN(C)C(=O)c1cc2n(n1)C(C(F)(F)F)CC(c1cccs1)N2 (stereo not drawn) |  | inactive: 2.42% |
| O=C(NCCN1CCN(c2ccccc2)CC1)c1cccn2c(=O)c3cc(Cl)ccc3nc12 |  | inactive: 3.1% |
| O=C(N/N=C/c1cccc(Cl)c1)C(c1ccncc1)N1CCOCC1 (stereo not drawn) | inconclusive: 0.891 µM [activator, full curve, poor fit] |  |
| COCCNC(=O)CSc1n[nH]c(=O)n1CCc1ccccc1 | active: 17.8 µM |  |
| N#C/C(=C\c1ccc(C#N)cc1)C(=O)c1ccccc1 | inconclusive: 3.16 µM [activator, partial curve] |  |
| Cc1ccc(-n2c(SCC(=O)NCc3ccco3)nc3nc4c(cc3c2=O)COC(C)(C)C4)cc1 | inconclusive: 10 µM [activator, partial curve, poor fit] |  |
| Cc1cccc(NC2=NC(C)(C)N=C(N)N2)c1 |  | inactive: 4.18% |
| CC(C)Cn1c(N)c(C(=O)NCc2cccs2)c2nc3ccccc3nc21 | inconclusive: 31.6 µM [activator, partial curve] |  |
| Cc1ccc(-n2ncc3c(NCc4ccccc4)ncnc32)cc1 |  | inactive: -3.24% |
| O=C(CCc1nc2ccccc2c(=O)[nH]1)NCCN1C(=O)S/C(=C\c2ccc(Cl)cc2Cl)C1=O | inconclusive: 39.8 µM [activator, partial curve] |  |
| CC(C)(C)c1cc(OC(=O)C2CCCC2)ccc1O | inconclusive: 39.8 µM [activator, single point] |  |
| CC(=O)Nc1ccc(S(=O)(=O)NCCSCc2cccc(Cl)c2)cc1 |  | inactive: 1% |
| Oc1ccc(NCc2ccccc2OCc2ccccc2F)cc1 |  | inactive: 16.3% |
| COc1cccc(C2NC(=O)NC(C)=C2C(=O)Nc2ccc(C)cc2)c1OC (stereo not drawn) | inconclusive: 39.8 µM [activator, partial curve] |  |
| CCOc1cc(C2C3=C(CC(C)(C)CC3=O)N(CCCOC)C3=C2C(=O)CC(C)(C)C3)ccc1O | inconclusive: 31.6 µM [activator, single point] |  |
| CC12CCC(C(=O)NNc3ccc([N+](=O)[O-])cc3)(OC1=O)C2(C)C (stereo not drawn) | active: 10 µM |  |
| CCOC(=O)Cn1cc(C(=O)c2ccco2)c2ccccc21 |  | inactive: 4.78% |
| COCCN(C(=O)C(C)C)c1nnc(-c2cccc(C)c2)s1 | inconclusive: 39.8 µM [activator, partial curve] |  |
| N#C/C(=N\Nc1ccc(F)cc1)C(=N)N1CCCCC1 |  | inactive: -4.11% |

| SMILES | Potency | activation |
| --- | --- | --- |
| COc1cccc(NC(=O)C(=O)NCCCN2CCCC2=O)c1 | inconclusive: 39.8 µM [activator, single point] |  |
| O=C(O)c1ccc(Nc2c3ccccc3nc3ccccc23)cc1 | active: 28.2 µM |  |
| CCc1ccc(CNc2ccc(O)cc2)cc1 |  | inactive: 9.77% |
| CC(C)Cc1cc(C(=O)Nc2sc3c(c2C#N)CCC3)no1 | inconclusive: 17.8 µM [activator, partial curve] |  |
| O=C(/C=C/c1ccccc1Br)c1ccc2c(c1)OCO2 | inconclusive: 39.8 µM [activator, single point] |  |
| Cc1cccc(N(CC(O)CN2CCCC2)S(=O)(=O)c2ccccc2)c1 (stereo not drawn) |  | inactive: 0.718% |
| CCN(CC)Cc1c(O)c(Cl)cc2c(C)cc(=O)oc12 | inconclusive: 39.8 µM [activator, partial curve] |  |
| CCOC(=O)CN(C(=O)CSc1nnc(COc2ccc(OC)cc2)n1CC)c1ccccc1 | inconclusive: 3.16 µM [activator, partial curve] |  |
| CCCCCCSc1cc(-c2nc3cnccn3c2NCc2ccccc2)ccc1OC | active: 17.8 µM |  |
| CC(C)OC(=O)c1c(NC(=O)c2ccco2)sc2c1CCCCC2 | inconclusive: 39.8 µM [activator, single point] |  |
| O=C(COC(=O)CNC(=O)c1ccccc1F)NC12CC3CC(CC(C3)C1)C2 |  | inactive: 4.09% |
| COC(=O)[C@H](Cc1ccccc1)NC(=O)NCc1ccc(C)cc1 | inconclusive: 31.6 µM [activator, partial curve, poor fit] |  |
| C=CCNC(=O)c1c(N)n(-c2cccc(S(N)(=O)=O)c2)c2nc3ccccc3nc12 | inconclusive: 17.8 µM [activator, partial curve] |  |
| CCOC(=O)c1cc2c3ccccc3n(CC)c2nc1N | inconclusive: 35.5 µM [activator, partial curve] |  |
| C[C@H](NC(=O)OC(C)(C)C)C(=O)NCC1CCC(C(=O)N[C@@H](Cc2ccccc2)C(=O)O)CC1 (stereo partly drawn) | active: 3.55 µM |  |
| COc1ccc(CNC(=O)c2ccc3c(=O)n4c(nc3c2)CCCCC4)cc1OC |  | inactive: 0.139% |
| COC(=O)CCCC1=CC2=CC(=O)C(C)(OC(=O)c3cccs3)C(=O)C2=CN1C1CCCCC1 (stereo not drawn) | active: 25.1 µM |  |
| Cc1ccccc1C(=O)NC(=S)Nc1ccccc1C(F)(F)F |  | inactive: -1.44% |
| CC(C)N(Cc1nc(-c2ccc(Cl)cc2)no1)C(=O)CCC1CCCC1 | inconclusive: 25.1 µM [activator, partial curve] |  |
| Cc1cc(Cl)n2c(nc3cc(F)c(F)cc32)c1C#N | inconclusive: 6.31 µM [activator, single point] |  |
| Nc1c(-c2ccccc2)cnn1-c1cccc(Cl)c1 | inconclusive: 10 µM [activator, partial curve, poor fit] |  |
| CC(C)NC(=O)/C(C#N)=C/c1cccc(NC(=O)c2ccccc2Cl)c1 | inconclusive: 39.8 µM [activator, single point] |  |
| C[C@@H]1CC[C@]2(C(=O)O[C@@H]3O[C@H](CO)[C@@H](O)[C@H](O)[C@H]3O)CC[C@]3(C)C(=CCC4[C@@]5(C)C[C@@H](O)[C@H](O)[C@@](C)(C(=O)O[C@@H]6[C@H](O)C[C@@]7(C)C(CC[C@]8(C)C7CC=C7[C@H]9[C@](C(=O)O[C@@H]%10O[C@H](CO)[C@@H](O)[C@H](O)[C@H]%10O)(CC[C@@H](C)[C@@]9(C)O)CC[C@]78C)[C@@]6(CO)C(=O)O)C5CC[C@]43C)[C@@H]2[C@]1(C)O (stereo partly drawn) | inconclusive: 22.4 µM [activator, partial curve] |  |
